This note sets out measurements from CN105384815A.

Amino acid sequences for entries named in this document (tags omitted). A change or cut given only in a name is not applied to a line headed by its entry.
UniProt Q82635: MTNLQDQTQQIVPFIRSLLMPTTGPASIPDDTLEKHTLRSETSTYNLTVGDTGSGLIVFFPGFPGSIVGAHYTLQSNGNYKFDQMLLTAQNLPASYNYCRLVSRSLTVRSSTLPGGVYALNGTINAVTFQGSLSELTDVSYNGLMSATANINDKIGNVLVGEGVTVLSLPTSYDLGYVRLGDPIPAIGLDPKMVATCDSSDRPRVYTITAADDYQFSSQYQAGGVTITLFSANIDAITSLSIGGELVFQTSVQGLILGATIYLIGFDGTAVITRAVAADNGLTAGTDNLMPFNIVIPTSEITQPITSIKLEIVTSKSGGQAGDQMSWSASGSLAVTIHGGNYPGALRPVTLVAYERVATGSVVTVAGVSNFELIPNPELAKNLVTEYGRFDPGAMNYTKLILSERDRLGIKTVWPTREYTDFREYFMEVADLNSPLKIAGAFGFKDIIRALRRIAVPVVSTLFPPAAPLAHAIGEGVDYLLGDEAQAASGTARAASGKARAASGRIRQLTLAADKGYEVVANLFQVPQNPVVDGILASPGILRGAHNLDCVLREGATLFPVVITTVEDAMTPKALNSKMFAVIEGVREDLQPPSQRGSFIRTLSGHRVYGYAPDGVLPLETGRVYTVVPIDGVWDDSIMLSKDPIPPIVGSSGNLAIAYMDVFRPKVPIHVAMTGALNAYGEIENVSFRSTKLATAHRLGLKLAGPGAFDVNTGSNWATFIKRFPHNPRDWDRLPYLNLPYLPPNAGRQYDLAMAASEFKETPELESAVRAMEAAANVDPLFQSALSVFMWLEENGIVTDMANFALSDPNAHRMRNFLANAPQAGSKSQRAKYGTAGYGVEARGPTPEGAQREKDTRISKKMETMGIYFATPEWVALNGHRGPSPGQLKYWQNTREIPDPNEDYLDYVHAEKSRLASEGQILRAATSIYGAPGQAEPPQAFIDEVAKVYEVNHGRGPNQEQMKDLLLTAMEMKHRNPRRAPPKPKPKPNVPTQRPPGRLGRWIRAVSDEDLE

This assay has as its target VP2蛋白 (recombinant, Example 3) (鸡传染性法氏囊病病毒 (IBDV), strain not stated) (UniProt Q82635). The experiment in a line: sandwich ELISA, scFv-GD coated, VP2 40 μg/ml, detection with anti-VP2 polyclonal antibody. In general terms: ELISA stands for enzyme-linked immunosorbent assay.

Results are given in words; binding and its absence hold for the method and conditions named. Some binding calls cover weakened binding; strength is not graded here.

B1: scFv-GD抗体 (scFv)
scFv: AVTLDESGGGLQTPGGALSLVCKASGFSISSYSMAWVRQAPGKGLEWVAGIYSSGSSTYYGSAVKGRATISRDNGQSTVRLQLNNLRAEDTGTYYCARGGCSTYGCGGYAGSIDAWGHGTEVIVSSASGGGGSGGGGSGGGGSALTQPSSVSANPGETVKITCSGGGSSYGYSWHQQKSPGSAPVTVIYNNTNRPSNIPSRFSGSKSGSTATLTITGVQADDEAIYFCGSADSSYVGIFGAGTTLTVLG
Consider B1, for which the binding entry is listed as “binds”.
